# PubChem BioAssay AID504786 | Drosophila RNAi Screening Center | 2011
# Aim: 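Positive regulators of HIF-driven reporter output in Drosophila cells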 (primary screen)
# Cell system: Drosophila S2 cells with a stable HIF luciferase reporter
# Reagent: long dsRNA against Drosophila genes, about 0.2 µg dsRNA per well of a 384-well plate
# Timing: three days of knock-down, then 20 h of DFO before reading
# Conditions: desferrioxamine (DFO) at 100 µM, an iron chelator that mimics hypoxia, for 20 h
# Detection: 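HIF reporter luminescence in cells given 100 µM DFO for 20 h, using the mouse ldh-a hypoxia-response element, scored as per-plate z-scores; higher means greater loss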
# Reading the numbers: z-score: higher = stronger loss of HIF reporter signal
# The deposit covers about 21,000 reagents; shown is an unselected part of those with a known target gene and a result. 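Primary screen; positive scores mean lost reporter signal, so the sign may be inverted from the usual convention.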 The numbers tell different reagents against one gene apart.
gene,dsRNA no.,"z-score, replicate 1","z-score, replicate 2","z-score, replicate 3","z-score, replicate 4"
sbb (scribbler),1,0.2,-0.1,,
sbb (scribbler),2,-0.3,-0.6,,
tay (tay bridge),1,-0.1,0.1,,
CG13461,1,-0.1,0.1,,
Ilp1 (Insulin-like peptide 1),1,-0.3,-0.3,,
"GatA (Glutamyl-tRNA amidotransferase, subunit A)",1,-0.3,0,,
CG34265,1,0,-0.4,,
CG32452,1,-0.1,-0.1,,
neur (neuralized),1,-0.4,-0.7,,
Chrac-16 (Chromatin accessibility complex 16kD protein),1,-0.4,3.8,,
yellow-f2,1,-0.2,-0.5,,
Sos (Son of sevenless),1,-0.2,1.9,,
DIP-gamma (Dpr-interacting protein gamma),1,-0.2,-0.2,,
CG9458,1,-0.5,-1,,
CG4631,1,-0.2,0.5,-0.5,-0.1
CG31954,1,-0.3,-0.2,,
Fst (Frost),1,-0.3,-0.2,,
CG17712,1,-0.2,-0.2,,
CG9616,1,-0.1,0,,
Trmt61 (tRNA methyltransferase 61),1,-0.7,0.5,,
CG14070,1,-0.3,-0.6,,
CG6508,1,-0.3,-0.3,,
CG42331,1,0.9,1.4,,
CG42331,2,-0.1,1.5,,
Uck (Uridine-cytidine kinase),1,0,0,,
Uck (Uridine-cytidine kinase),2,-0.3,0.3,,
CG13332,1,-0.2,-0.3,,
CG4074,1,-0.3,0.4,,
CdGAPr (Cd GTPase activating protein-related),1,-0.4,-0.4,,
CG16711,1,-0.4,-0.4,,
veil,1,-0.2,-0.4,,
CG31781 (retired record),1,-0.3,-0.3,,
CG31781 (retired record),2,-0.3,-0.2,,
CG15756,1,-0.4,-0.4,,

Targets listed so far whose target name begins with U or u:
gene,dsRNA no.,"z-score, replicate 1","z-score, replicate 2","z-score, replicate 3","z-score, replicate 4"
Uck (Uridine-cytidine kinase),1,0,0,,
Uck (Uridine-cytidine kinase),2,-0.3,0.3,,
